Measurements reported in PubChem BioAssay AID652259 (Drosophila RNAi Screening Center, 2013)

Test: 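Identify new Wingless signalling regulators in fly cells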 (primary screen)
System: Drosophila clone 8 imaginal disc epithelial cells
Knock-down reagent: long dsRNA against Drosophila genes
Conditions: pathway stimulated by co-transfected Wingless expression plasmid
Detection: 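Firefly luciferase from a tcf-site Wingless reporter, measured alongside co-transfected Renilla luciferase that tracks transfection; pathway stimulated by a Wingless plasmid; the firefly-to-Renilla ratio is not deposited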
Direction: firefly reporter light: higher = more Wg reporter light, before normalisation; Renilla control light: higher = more transfected or surviving cells
Active means: 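Strong candidates differ from their plate mean by at least two out of four per-plate statistical tests; weak candidates meet just one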
Meaning of the calls: active = candidate regulator (raises or lowers reporter); inactive = not a candidate
The deposit covers about 22,000 reagents; this is a random part of those with a known target gene and a result. Of all reagents, 233 (1.1%) are marked active. 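Light values are raw, unnormalised plate reads; the ratio scores behind the reporter calls were not deposited.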 Not stated in the record: the amount of reagent, the time to read-out, the dose of the treatment.

predicted target,dsRNA,"firefly reporter light, replicate 1","firefly reporter light, replicate 2","Renilla control light, replicate 1","Renilla control light, replicate 2",Outcome
CG10631,DRSC02081,12675,,3961,,inactive
Eip63E,DRSC08658,7552,,2866,,inactive
msl-1,DRSC03573,2904,10877,167,2867,inactive
peo,DRSC05995,7969,,1877,,inactive
Lcp65Aa,DRSC11209,1425,8265,834,2834,inactive
Mob4,DRSC04993,9674,,1907,,inactive
Vps35,DRSC04519,7283,,2261,,inactive
CG43316,DRSC06297,5880,,2409,,inactive
Vps8,DRSC09705,1429,6280,1148,3076,inactive
Xe7,DRSC12307,17827,,3137,,inactive
CG16749,DRSC15146,16359,,3021,,inactive
kar,DRSC14496,7026,,2320,,inactive
CG5969,DRSC11789,6336,,3337,,inactive
inaC,DRSC07632,13963,,3362,,inactive
lectin-37Da,DRSC03278,4164,8965,1328,3826,inactive
lectin-37Da,DRSC22729,8.30e5,8.30e5,3.25e5,3.71e5,inactive
Ilp5,DRSC08998,4848,,2167,,inactive
plum,DRSC16054,1463,4153,946,1605,inactive
CG7916,DRSC01901,2738,6101,914,2496,inactive
CG4462,DRSC15583,2140,5792,1031,1643,inactive
pcm,DRSC20361,2937,7825,1829,1351,inactive
Spn85F,DRSC14545,2552,,1139,,inactive
mRpL32,DRSC14479,8359,,3458,,inactive
HDAC1,DRSC08696,3809,,1440,,inactive
CG1632,DRSC17558,3409,,973,,inactive
CG1632,DRSC18110,20251,,11563,,inactive
Plzf,DRSC02994,14950,,2438,,inactive
CG11977,DRSC14454,9700,,2794,,inactive
CG34433,DRSC15077,7745,,3366,,inactive
CG30416,DRSC04565,2560,5878,481,1209,inactive
jub,DRSC19367,1162,3732,645,1875,inactive
ppk7,DRSC03236,1937,3883,249,1952,inactive
CG13461,DRSC10008,4203,,2004,,inactive
Nct,DRSC16172,2528,6763,1062,2244,inactive
Zfrp8,DRSC04352,1456,5812,339,2346,inactive
CG5721,DRSC06945,12294,,4144,,inactive
CG31730,DRSC01308,20322,,9655,,inactive
Dr,DRSC17002,5384,9461,2192,3575,inactive
Dr,DRSC22708,4.93e5,5.45e5,69121,22857,inactive
bonsai,DRSC04453,2651,6549,706,2588,inactive
CG30094,DRSC22268,4.56e5,4.57e5,1.25e5,1.14e5,inactive
CG11629,DRSC03695,2819,7639,664,2120,inactive
Nfs1,DRSC02154,8081,,1543,,inactive
CG15255,DRSC01869,2614,5942,837,2747,inactive
CG10793,DRSC17760,16117,,10930,,inactive
CG15237,DRSC04971,2914,6273,224,3428,inactive
Ddx1,DRSC11862,4919,,2307,,inactive
CG4896,DRSC00671,7729,,4051,,inactive
CG5781,DRSC02893,1767,5623,780,2394,inactive

Entries listed so far whose gene name starts with P or p:
predicted target,dsRNA,"firefly reporter light, replicate 1","firefly reporter light, replicate 2","Renilla control light, replicate 1","Renilla control light, replicate 2",Outcome
peo,DRSC05995,7969,,1877,,inactive
plum,DRSC16054,1463,4153,946,1605,inactive
pcm,DRSC20361,2937,7825,1829,1351,inactive
Plzf,DRSC02994,14950,,2438,,inactive
ppk7,DRSC03236,1937,3883,249,1952,inactive
